Source: PubChem BioAssay AID1224830 (NIAID, 2016)
Shown is a random part of about 18,000 reagents. Over the whole deposit, about 2,900 (16%) were called active. 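Calls are made per well; low scores hint the gene aids the LPS response, high scores that it dampens it.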 Unmarked entries are inactive. Repeated entries: four replicate wells of each siRNA pool.

- Test: 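Regulators of TLR4 signalling towards TNF-alpha in macrophage-like cells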 (primary screen)
- Cell system: human THP-1 monocytic leukaemia cells, TNF dual-luciferase reporter clone, PMA-differentiated to macrophage-like cells
- Knock-down reagent: siRNA pool against human genes, 50 nM
- Timing: LPS for 4 h, given about 3 days after siRNA transfection
- Conditions: bacterial LPS (TLR4 ligand), 10 ng/ml
- Read-out: 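TNF firefly reporter luminescence divided by renilla, normalised to the plate median, then turned into a robust z-score for each replicate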
- Reading the numbers: TNF reporter robust z-score: higher = stronger TNF reporter response to LPS
- Hit rule: 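Each well counts as active if its z-score is over 2.8 or under -1.5; controls are left without a call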

no.	gene	TNF reporter robust z-score
1	SUGCT	0.77
2	SUGCT	-0.15
3	SUGCT	2.52
4	SUGCT	0.26
5	FOXK2	-0.12
6	FOXK2	0.28
7	FOXK2	0.97
8	FOXK2	1.11
9	MARK3	-0.6
10	MARK3	0.93
11	MARK3	14.1 (active)
12	MARK3	2.55
13	PARK7	-1.23
14	PARK7	-1.14
15	PARK7	-1.1
16	PARK7	-0.69
17	SLC16A8	-1.22
18	SLC16A8	-1.09
19	SLC16A8	-0.7
20	KCNIP4	2.36
21	KCNIP4	2.11
22	KCNIP4	0.43
23	KCNIP4	0.5
24	RERGL	-0.79
25	RERGL	-1.13
26	RERGL	-1.22
27	RERGL	-0.48
28	OGT	-0.99
29	OGT	-0.74
30	OGT	-0.88
31	OGT	-0.92
32	CCNF	-2.06 (active)
33	CCNF	-0.22
34	CCNF	1.46
35	CCNF	-0.53
36	MAGI2	-0.13
37	MAGI2	0.28
38	MAGI2	-0.39
39	MAGI2	0.32
40	HECTD4	-0.17
41	HECTD4	0.4
42	HECTD4	1.12
43	HECTD4	1.41
44	ELOVL7	0.21
45	ELOVL7	-0.95
46	ELOVL7	0.58
47	ELOVL7	3.61 (active)
48	NUP155	-1.04
49	NUP155	-1.28
50	NUP155	-1.17
51	NUP155	-0.75
52	MRPL41	-1.11
53	MRPL41	-0.08
54	MRPL41	-0.95
55	MRPL41	-0.49
56	PDE2A	3.97 (active)
57	PDE2A	4.04 (active)
58	PDE2A	1.72
59	SLITRK4	-0.87
60	SLITRK4	-0.4
61	SLITRK4	-0.46
62	SLITRK4	-0.49
63	FSCN1	0.85
64	FSCN1	-0.48
65	FSCN1	1.28
66	FSCN1	0.52
67	PNLIPRP3	-0.5
68	PNLIPRP3	-0.18
69	PNLIPRP3	-0.33
70	PNLIPRP3	-1.87 (active)
71	INSC	-0.16
72	INSC	0.18
73	INSC	-0.06
74	INSC	0.05
75	ZNF595	0.21
76	ZNF595	-0.05
77	ZNF595	0.84
78	ZNF595	-0.08
79	GPX5	0.18
80	GPX5	2.17
81	GPX5	1.52
82	GPX5	0.59
83	ZNF565	-0.92
84	ZNF565	-0.52
85	ZNF565	-0.75
86	ZNF565	-0.45
87	PDE6C	-0.41
88	PDE6C	0.15
89	PDE6C	0.01
90	ANXA2R	0.49
91	ANXA2R	0.56
92	ANXA2R	0.14
93	ANXA2R	1.07
94	DUSP11	-1.02
95	DUSP11	-0.81
96	DUSP11	-1.54 (active)
97	DUSP11	-0.9
98	HYKK	0
99	HYKK	1.39
100	HYKK	-0.38
101	HYKK	0.3
102	FBXW10B	-0.75
103	FBXW10B	0.28
104	FBXW10B	-0.84
105	FBXW10B	0.14
106	CST6	0.75
107	CST6	-0.03
108	CST6	0.17
109	CST6	0.27
110	WDR81	-0.82
111	WDR81	-1.26
112	WDR81	-1.12
113	WDR81	-0.96
114	NEFM	0.01
115	NEFM	-0.32
116	NEFM	-0.8
117	NEFM	0.47
118	SAMD12	0.06
119	SAMD12	1.23
120	SAMD12	2.34
121	SAMD12	1.71
122	TMEM141	-0.81
123	TMEM141	1.52
124	TMEM141	0.78
125	TMEM141	-1.21
126	CEACAM5	-0.87
127	CEACAM5	-0.64
128	CEACAM5	0.37
129	CEACAM5	0.11
130	SLCO2B1	-0.16
131	SLCO2B1	0.07
132	SLCO2B1	-0.1
133	SLCO2B1	-0.43
134	CRISP3	-0.87
135	CRISP3	-0.44
136	CRISP3	-0.71
137	CRISP3	-0.34
138	PSMB5	-0.24
139	PSMB5	-0.75
140	PSMB5	-1.23
141	PSMB5	-0.33
